From the supplement of paper PMC6331611 come the findings set out here.

± gives the standard deviation of the averaged measurements. In all, about 1,600 compounds were measured (“normalized intracellular growth (luminescence, IQM-normalized) in RAW264.7 macrophages”: median about 1, lowest 2% from about 0.43 on). The list shows a part of the results.

The experiment concerns Salmonella enterica serovar Typhimurium SL1344. The experiment can be described thus: normalized intracellular growth (luminescence, IQM-normalized) in RAW264.7 macrophages (fraction of plate interquartile mean); higher = more bacterial growth (less inhibition). The following applies: 10 µM.

`CC[C@]1(O)C[C@H]2CN(CCc3c([nH]c4ccccc34)[C@@](C(=O)OC)(c3cc4c(cc3OC)N(C=O)[C@H]3[C@@](O)(C(=O)OC)[C@H](OC(C)=O)[C@]5(CC)C=CCN6CC[C@]43[C@@H]65)C2)C1`: the normalized intracellular growth was found to be 1.01 ± 0.036 (time point: T3 (3 h)) and 0.689 ± 0.09 (time point: Tfinal (~6 h)).
In the case of `CC(=O)[C@H]1CC[C@H]2[C@@H]3C=CC4=CC(=O)CC[C@@]4(C)[C@@H]3CC[C@]12C`, the normalized intracellular growth is 1.03 ± 0.038 (time point: T3 (3 h)) and 0.988 ± 0.17 (time point: Tfinal (~6 h)).
Consider `Cc1cc(=O)[nH]c(=S)[nH]1`, for which the normalized intracellular growth is, setting by setting: (time point: T3 (3 h)) 1.1 ± 0.014; (time point: Tfinal (~6 h)) 0.99 ± 0.06.
On the same counts, the results for `C[C@H]1O[C@@H](O[C@H]2[C@@H](O)C[C@H](O[C@H]3[C@@H](O)C[C@H](O[C@H]4CC[C@@]5(C)[C@H](CC[C@@H]6[C@@H]5C[C@@H](O)[C@]5(C)[C@@H](C7=CC(=O)OC7)CC[C@]65O)C4)O[C@@H]3C)O[C@@H]2C)C[C@H](O)[C@@H]1O` are 1.06 ± 0.043 and 0.991 ± 0.052.
On the same counts, the results for `Cc1c(OCC(F)(F)F)ccnc1C[S@@+]([O-])c1nc2ccccc2[nH]1` are 0.98 ± 0.076 and 1.18 ± 0.11.
On the same counts, the results for `CC(C(=O)O)c1ccc(-c2ccccc2)c(F)c1` (stereo unspecified) are 0.84 ± 0.071 and 0.955 ± 0.12.
As to `COc1cc2c(N3CCN(C(=O)Nc4ccc(OC(C)C)cc4)CC3)ncnc2cc1OCCCN1CCCCC1`, the normalized intracellular growth was found to be 1.01 ± 0.018 (time point: T3 (3 h)) and 0.875 ± 0.012 (time point: Tfinal (~6 h)).
The like results for `O=C(OCC(O)CO)c1ccccc1Nc1ccnc2cc(Cl)ccc12` (stereo unspecified) were, in that order, 1.05 ± 0.057 and 0.984 ± 0.1.
On the same counts, the results for `Nc1nc2[nH]cnc2c(=S)[nH]1` are 0.8645 ± 0.0065 and 0.765 ± 0.04.
On the same counts, the results for `CC(=O)C1C(=O)C=C(C)OC1=O` (stereo unspecified) are 1 ± 0.013 and 1.12 ± 0.014.
As to `CN(C)C(=O)C(CCN1CCC(O)(c2ccc(Cl)cc2)CC1)(c1ccccc1)c1ccccc1`, the normalized intracellular growth was determined as 0.981 ± 0.0038 (time point: T3 (3 h)) and 1.01 ± 0.016 (time point: Tfinal (~6 h)).
The like results for `CO/N=C(\C(=O)N[C@@H]1C(=O)N2C(C(=O)O)=C(CSc3nnnn3C)CS[C@H]12)c1csc(N)n1` were, in that order, 0.987 ± 0.052 and 0.935 ± 0.032.
On the same counts, the results for `CC(C(=O)O)c1ccc2c(c1)[nH]c1ccc(Cl)cc12` (stereo unspecified) are 1.08 ± 0.042 and 0.948 ± 0.015.
The like results for `O=C1c2c(O)cccc2C([C@@H]2O[C@H](CO)[C@@H](O)[C@H](O)[C@H]2O)c2cc(CO)cc(O)c21` (stereo partly specified) were, in that order, 0.956 ± 0.049 and 1.02 ± 0.052.
As to `CN1C(=O)CC[C@H]1c1cccnc1`, the normalized intracellular growth was 1.02 ± 0.047 (time point: T3 (3 h)) and 0.917 ± 0.095 (time point: Tfinal (~6 h)).
On to `CC[C@@H]1C(=O)OC[C@@H]1Cc1cncn1C`, for which the normalized intracellular growth runs as follows: (time point: T3 (3 h)) 0.748 ± 0.12; (time point: Tfinal (~6 h)) 0.91 ± 0.11.
For the compound `O=C(OOC(=O)c1ccccc1)c1ccccc1`, the normalized intracellular growth runs as follows: (time point: T3 (3 h)) 1 ± 0.017; (time point: Tfinal (~6 h)) 1.05 ± 0.037.
As to `N[C@@H](Cc1c[nH]c2ccccc12)C(=O)O`, the normalized intracellular growth runs as follows: (time point: T3 (3 h)) 0.9872 ± 0.0059; (time point: Tfinal (~6 h)) 0.97 ± 0.035.
The like results for `CCC1(C)OC(=O)N(C)C1=O` (stereo unspecified) were, in that order, 1.03 ± 0.098 and 0.887 ± 0.17.
The like results for `CC(O)Cn1cnc2c1c(=O)n(C)c(=O)n2C` (stereo unspecified) were, in that order, 1.02 ± 0.033 and 1.14 ± 0.027.
Consider `NS(=O)(=O)c1cc2c(cc1C(F)(F)F)NCNS2(=O)=O`, for which the normalized intracellular growth came out at 1.04 ± 0.026 (time point: T3 (3 h)) and 0.997 ± 0.083 (time point: Tfinal (~6 h)).
The like results for `NC(=O)CCCCC1CCSS1` (stereo unspecified) were, in that order, 0.996 ± 0.093 and 0.817 ± 0.12.
The like results for `C=C(C)[C@H]1CC=C(C)CC1` were, in that order, 0.96 ± 0.013 and 1.1 ± 0.098.
The like results for `CS(=O)(=O)OCCCCOS(C)(=O)=O` were, in that order, 0.974 ± 0.018 and 0.996 ± 0.033.
In the case of `Cc1c(NC(=O)c2cccnc2)c(=O)n(-c2ccccc2)n1C`, the normalized intracellular growth was 0.955 ± 0.03 (time point: T3 (3 h)) and 1.02 ± 0.044 (time point: Tfinal (~6 h)).
On the same counts, the results for `COc1cccc2c1C(=O)c1c(O)c3c(c(O)c1C2=O)C[C@@](O)(C(C)=O)C[C@@H]3O[C@H]1C[C@H](N)[C@H](O)[C@H](C)O1` are 0.982 ± 0.015 and 0.823 ± 0.053.
On the same counts, the results for `CN1C(CCl)Nc2cc(Cl)c(S(N)(=O)=O)cc2S1(=O)=O` (stereo unspecified) are 0.922 ± 0.043 and 0.711 ± 0.18.
The like results for `C=CC1=C(C(=O)O)N2C(=O)[C@@H](NC(=O)/C(=N\O)c3csc(N)n3)[C@H]2SC1` were, in that order, 0.973 ± 0.034 and 0.0262 ± 0.0031.
